This is an account of results in publication PMC8570024.

Chains of the proteins cited; added tags and fusions are not shown.
UniProt Q16665: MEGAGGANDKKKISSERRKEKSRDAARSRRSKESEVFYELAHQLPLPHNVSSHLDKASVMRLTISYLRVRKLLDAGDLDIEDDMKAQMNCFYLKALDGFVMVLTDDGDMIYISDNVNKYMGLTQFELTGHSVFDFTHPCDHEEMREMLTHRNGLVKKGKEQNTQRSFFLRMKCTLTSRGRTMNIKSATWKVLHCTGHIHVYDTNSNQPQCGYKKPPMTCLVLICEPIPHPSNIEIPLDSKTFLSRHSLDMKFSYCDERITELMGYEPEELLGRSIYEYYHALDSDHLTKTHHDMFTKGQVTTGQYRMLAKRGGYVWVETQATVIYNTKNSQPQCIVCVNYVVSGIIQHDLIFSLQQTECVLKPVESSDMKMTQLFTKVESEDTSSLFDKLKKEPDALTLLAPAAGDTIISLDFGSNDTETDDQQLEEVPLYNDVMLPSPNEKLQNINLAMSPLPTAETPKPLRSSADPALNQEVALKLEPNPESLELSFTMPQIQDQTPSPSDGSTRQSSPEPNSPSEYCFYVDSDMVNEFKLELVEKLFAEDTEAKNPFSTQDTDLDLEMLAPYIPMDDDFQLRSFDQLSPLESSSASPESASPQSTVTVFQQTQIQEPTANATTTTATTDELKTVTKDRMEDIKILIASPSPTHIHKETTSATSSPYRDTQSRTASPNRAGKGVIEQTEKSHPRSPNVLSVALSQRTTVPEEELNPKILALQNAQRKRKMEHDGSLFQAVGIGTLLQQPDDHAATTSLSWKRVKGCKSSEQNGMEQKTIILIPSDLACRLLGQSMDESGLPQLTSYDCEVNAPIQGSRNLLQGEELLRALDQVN
UniProt Q93009: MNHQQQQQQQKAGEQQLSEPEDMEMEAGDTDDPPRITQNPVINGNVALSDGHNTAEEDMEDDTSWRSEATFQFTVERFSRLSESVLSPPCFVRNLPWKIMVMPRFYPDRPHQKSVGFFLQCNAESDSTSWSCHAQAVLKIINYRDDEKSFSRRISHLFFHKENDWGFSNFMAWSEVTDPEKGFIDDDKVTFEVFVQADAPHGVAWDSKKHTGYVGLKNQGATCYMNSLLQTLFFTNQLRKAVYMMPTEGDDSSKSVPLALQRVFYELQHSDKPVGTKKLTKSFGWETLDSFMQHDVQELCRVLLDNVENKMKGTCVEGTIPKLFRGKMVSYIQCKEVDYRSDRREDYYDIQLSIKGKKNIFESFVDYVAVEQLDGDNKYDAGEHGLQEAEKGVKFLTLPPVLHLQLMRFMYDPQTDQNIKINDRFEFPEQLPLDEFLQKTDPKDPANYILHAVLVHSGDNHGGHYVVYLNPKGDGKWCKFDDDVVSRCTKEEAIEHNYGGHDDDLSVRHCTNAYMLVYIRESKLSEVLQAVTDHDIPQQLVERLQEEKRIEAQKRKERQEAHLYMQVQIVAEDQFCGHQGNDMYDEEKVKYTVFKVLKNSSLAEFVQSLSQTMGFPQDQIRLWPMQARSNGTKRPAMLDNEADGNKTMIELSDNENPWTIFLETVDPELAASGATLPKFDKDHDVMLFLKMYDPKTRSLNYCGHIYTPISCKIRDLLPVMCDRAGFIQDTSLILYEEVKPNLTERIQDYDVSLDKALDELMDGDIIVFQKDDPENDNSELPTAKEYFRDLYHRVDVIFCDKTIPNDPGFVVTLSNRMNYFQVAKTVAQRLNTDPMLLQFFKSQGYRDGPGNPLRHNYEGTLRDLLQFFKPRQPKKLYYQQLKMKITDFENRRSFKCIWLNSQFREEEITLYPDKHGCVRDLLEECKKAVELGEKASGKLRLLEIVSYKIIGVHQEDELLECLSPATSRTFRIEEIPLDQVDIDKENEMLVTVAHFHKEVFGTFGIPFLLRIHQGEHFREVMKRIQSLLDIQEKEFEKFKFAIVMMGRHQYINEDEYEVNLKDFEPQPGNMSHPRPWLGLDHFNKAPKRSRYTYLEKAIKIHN

The target in this assay is Flag-HIF-1α (UniProt Q16665). In words: co-IP; Flag-HIF-1α and Xpress-USP7 co-transfected into HEK293T; immunoprecipitation with α-Flag beads or α-Xpress beads, immunoblotting with α-Xpress or α-Flag antibody; 1% of whole cell lysate as input. For orientation: A western blot detects proteins with antibodies after separation by electrophoresis.

No constants are given. Whether binding was seen depends on the method and setting. Binding seen in cells or lysates may run through a third protein. Some results given as binding are weak or reduced against the parent protein; the word gives no strength.

As for “Xpress-USP7 (from UniProt Q93009 1-1102) (enzyme)”, the binding entry is on record as “binds”.
